This is an account of results in the supplement of paper PMC12819154, “High-throughput peptide-centric local stability assay extends protein–ligand identification to membrane proteins, tissues and bacteria” (Nature Structural & Molecular Biology, 2025).

Amino acid sequences for entries named in this document (tags omitted). A change or cut given only in a name is not applied to a line headed by its entry.
UniProt Q9HAV0, whole entry: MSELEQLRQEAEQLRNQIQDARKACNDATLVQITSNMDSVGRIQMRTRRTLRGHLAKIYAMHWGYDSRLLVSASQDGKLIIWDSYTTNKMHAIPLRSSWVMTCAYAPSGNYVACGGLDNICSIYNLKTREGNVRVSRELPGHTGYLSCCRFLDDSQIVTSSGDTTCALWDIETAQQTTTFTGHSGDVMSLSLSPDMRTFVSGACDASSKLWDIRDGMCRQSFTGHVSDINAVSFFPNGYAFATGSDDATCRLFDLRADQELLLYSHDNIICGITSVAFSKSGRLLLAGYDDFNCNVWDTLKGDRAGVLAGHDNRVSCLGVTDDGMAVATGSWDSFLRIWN
UniProt Q9H6Z4: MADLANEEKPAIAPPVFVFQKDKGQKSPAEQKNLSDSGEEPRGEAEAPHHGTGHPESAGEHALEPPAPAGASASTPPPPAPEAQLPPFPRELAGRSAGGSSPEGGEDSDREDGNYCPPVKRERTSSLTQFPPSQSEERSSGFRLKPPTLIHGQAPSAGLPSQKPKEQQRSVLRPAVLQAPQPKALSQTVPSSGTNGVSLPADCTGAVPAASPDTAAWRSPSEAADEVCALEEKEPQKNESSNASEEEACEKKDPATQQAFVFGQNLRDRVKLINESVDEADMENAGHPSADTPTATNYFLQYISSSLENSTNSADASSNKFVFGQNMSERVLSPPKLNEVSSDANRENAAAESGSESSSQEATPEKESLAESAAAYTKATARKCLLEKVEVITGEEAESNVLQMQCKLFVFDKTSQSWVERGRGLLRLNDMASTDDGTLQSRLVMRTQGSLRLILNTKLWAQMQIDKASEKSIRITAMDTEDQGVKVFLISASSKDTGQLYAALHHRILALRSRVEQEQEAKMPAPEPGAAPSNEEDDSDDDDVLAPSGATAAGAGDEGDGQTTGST
UniProt Q9H299: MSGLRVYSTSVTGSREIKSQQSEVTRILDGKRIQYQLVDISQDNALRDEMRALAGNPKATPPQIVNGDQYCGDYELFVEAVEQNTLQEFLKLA
UniProt Q9HCG7: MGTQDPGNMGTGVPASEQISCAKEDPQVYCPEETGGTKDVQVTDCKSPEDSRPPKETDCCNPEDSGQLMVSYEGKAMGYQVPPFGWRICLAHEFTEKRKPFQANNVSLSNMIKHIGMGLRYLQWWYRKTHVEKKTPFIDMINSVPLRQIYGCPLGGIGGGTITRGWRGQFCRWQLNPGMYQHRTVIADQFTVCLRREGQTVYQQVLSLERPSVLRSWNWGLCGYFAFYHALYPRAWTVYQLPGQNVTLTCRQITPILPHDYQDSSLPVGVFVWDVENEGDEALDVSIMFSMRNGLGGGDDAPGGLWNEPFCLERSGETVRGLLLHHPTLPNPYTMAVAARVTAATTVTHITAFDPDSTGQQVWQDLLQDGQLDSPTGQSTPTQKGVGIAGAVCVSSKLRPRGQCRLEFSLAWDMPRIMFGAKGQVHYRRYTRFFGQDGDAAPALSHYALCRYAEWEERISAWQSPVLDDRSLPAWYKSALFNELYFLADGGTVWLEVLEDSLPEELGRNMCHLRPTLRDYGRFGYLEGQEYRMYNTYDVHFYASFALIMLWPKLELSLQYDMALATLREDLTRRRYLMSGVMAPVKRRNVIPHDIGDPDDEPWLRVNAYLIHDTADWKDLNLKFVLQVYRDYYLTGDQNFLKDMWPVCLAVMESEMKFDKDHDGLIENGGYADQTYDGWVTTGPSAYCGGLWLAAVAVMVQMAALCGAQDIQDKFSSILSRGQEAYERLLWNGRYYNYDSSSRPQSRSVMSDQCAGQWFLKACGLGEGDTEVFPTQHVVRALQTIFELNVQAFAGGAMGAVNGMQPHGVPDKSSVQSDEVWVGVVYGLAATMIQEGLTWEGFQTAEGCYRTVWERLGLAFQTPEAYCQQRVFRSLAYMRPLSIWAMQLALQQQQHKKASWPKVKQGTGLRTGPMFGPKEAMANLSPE
UniProt Q9H9Y4: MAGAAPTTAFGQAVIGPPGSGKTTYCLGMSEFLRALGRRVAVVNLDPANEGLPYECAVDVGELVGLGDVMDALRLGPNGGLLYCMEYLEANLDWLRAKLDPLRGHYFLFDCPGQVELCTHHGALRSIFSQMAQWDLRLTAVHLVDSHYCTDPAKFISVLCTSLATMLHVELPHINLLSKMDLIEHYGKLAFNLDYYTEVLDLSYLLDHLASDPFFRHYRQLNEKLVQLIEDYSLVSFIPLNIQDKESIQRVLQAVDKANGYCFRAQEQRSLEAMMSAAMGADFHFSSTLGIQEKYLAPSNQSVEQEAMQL
UniProt Q9H6F5: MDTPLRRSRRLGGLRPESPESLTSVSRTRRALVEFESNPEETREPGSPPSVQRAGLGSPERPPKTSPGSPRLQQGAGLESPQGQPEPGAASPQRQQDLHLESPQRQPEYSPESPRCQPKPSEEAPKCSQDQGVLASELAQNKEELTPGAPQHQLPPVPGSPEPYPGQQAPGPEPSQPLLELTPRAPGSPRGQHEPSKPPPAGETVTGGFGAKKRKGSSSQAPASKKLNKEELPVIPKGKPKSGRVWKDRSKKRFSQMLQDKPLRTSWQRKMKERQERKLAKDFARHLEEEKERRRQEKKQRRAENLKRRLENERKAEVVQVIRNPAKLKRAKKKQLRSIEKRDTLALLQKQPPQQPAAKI
UniProt Q9H8T0: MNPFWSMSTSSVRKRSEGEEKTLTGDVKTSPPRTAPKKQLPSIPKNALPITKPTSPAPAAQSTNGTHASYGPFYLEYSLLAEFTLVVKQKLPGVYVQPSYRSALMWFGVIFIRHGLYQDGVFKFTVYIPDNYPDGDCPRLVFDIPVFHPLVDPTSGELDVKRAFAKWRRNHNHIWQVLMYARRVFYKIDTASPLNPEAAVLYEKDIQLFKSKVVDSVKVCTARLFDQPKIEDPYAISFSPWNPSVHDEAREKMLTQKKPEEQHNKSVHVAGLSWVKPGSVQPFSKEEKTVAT
UniProt Q9H3U1: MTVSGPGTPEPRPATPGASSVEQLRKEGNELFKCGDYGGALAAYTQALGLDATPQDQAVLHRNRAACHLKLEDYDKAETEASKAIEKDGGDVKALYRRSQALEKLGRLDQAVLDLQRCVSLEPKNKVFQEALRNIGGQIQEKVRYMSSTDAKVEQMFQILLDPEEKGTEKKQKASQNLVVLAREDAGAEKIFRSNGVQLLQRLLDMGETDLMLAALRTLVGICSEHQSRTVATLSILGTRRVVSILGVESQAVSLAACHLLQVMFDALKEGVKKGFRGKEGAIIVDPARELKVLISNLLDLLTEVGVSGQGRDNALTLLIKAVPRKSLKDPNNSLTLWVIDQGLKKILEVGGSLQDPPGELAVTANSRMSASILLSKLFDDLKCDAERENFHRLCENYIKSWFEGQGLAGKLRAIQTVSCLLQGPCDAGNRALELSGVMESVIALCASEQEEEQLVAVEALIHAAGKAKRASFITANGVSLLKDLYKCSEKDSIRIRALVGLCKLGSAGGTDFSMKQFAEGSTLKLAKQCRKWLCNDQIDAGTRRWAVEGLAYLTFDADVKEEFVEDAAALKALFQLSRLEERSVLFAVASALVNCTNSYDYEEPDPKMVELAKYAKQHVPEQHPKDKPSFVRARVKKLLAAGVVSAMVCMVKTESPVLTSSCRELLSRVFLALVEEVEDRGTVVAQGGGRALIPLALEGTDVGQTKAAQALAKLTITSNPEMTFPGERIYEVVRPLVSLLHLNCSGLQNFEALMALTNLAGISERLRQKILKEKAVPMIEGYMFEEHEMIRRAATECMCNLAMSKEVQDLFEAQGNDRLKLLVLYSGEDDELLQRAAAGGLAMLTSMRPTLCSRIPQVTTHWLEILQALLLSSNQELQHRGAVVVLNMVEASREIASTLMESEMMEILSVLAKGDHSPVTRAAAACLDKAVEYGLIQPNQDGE
UniProt Q9H2X6: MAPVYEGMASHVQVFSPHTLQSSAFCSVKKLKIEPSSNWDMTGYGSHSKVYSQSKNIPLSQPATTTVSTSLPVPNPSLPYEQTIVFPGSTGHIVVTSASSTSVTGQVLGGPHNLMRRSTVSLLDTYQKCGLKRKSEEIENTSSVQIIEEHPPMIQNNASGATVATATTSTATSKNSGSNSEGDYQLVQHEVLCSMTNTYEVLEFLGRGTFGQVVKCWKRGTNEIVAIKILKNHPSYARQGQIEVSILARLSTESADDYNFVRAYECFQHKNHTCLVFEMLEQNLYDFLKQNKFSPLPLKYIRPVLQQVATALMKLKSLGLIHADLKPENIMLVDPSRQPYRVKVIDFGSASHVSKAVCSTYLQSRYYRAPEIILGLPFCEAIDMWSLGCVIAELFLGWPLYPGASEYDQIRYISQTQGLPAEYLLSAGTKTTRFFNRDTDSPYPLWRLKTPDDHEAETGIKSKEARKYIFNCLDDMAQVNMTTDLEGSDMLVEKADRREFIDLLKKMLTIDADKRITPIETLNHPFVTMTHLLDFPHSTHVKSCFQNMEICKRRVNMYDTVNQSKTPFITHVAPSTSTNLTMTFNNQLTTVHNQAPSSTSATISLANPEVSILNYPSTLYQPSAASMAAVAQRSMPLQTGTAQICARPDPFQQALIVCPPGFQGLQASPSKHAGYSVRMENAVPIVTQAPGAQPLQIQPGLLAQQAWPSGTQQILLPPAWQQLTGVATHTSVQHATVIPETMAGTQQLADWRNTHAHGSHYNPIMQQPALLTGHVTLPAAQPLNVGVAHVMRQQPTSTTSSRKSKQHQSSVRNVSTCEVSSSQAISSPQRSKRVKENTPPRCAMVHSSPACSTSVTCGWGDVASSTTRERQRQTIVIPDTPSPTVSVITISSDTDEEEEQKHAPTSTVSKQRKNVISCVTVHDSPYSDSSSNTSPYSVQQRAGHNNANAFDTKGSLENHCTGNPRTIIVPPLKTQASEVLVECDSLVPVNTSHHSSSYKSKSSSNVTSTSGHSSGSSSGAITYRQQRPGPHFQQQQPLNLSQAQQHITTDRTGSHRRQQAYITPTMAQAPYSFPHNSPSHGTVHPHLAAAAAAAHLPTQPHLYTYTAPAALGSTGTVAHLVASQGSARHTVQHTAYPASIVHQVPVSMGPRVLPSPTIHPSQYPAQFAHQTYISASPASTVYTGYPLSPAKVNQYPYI
UniProt Q9H9D4: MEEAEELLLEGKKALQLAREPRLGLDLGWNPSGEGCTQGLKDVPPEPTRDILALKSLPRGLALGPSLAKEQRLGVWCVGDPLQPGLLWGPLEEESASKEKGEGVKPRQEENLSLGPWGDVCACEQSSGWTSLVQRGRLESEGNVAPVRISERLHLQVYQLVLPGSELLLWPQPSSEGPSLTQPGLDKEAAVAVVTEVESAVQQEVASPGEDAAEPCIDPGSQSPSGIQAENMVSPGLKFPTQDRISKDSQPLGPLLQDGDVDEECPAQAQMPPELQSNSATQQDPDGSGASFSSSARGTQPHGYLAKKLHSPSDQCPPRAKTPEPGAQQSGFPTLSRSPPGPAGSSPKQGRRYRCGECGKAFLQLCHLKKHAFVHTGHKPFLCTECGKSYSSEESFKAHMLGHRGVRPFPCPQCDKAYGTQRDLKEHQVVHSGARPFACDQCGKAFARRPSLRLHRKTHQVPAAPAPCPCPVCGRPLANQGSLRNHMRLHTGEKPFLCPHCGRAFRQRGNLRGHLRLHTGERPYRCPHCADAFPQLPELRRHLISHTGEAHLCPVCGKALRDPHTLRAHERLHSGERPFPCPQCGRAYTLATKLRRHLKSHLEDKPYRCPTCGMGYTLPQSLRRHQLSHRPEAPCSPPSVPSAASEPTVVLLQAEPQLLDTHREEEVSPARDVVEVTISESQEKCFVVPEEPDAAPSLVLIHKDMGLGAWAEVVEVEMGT
UniProt Q9H1K0: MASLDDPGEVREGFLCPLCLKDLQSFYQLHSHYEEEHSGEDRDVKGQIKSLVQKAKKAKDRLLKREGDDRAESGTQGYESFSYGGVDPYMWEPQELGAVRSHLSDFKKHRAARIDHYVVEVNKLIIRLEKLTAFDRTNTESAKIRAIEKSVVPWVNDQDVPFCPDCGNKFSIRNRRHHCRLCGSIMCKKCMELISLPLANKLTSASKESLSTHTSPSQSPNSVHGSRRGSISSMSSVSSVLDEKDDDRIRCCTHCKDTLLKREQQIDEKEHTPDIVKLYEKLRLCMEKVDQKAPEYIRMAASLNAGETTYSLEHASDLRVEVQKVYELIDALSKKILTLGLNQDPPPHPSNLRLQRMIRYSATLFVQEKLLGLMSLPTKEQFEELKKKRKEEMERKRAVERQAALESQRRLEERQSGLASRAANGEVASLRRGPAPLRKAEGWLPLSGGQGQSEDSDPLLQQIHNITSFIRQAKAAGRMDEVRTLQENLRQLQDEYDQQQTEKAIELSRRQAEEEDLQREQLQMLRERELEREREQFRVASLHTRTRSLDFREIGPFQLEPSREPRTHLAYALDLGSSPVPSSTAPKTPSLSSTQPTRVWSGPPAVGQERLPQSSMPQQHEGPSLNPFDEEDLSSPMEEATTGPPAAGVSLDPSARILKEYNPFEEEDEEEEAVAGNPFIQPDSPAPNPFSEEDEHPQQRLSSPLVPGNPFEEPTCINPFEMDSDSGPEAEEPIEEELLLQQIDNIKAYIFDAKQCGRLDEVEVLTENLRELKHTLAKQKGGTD

This is one part of the list. Most entries show no effect beyond the scatter of the controls.

Compound in the experiment: Cc1nc(Nc2ncc(C(=O)Nc3c(C)cccc3Cl)s2)cc(N2CCN(CCO)CC2)n1 [dasatinib]
Description: log2 fold change of tryptic peptide abundance, ligand vs vehicle (limited proteolysis) (log2 ratio); higher = more trypsin-susceptible (destabilized). The following applies: ligand concentration: 5 uM; sample: K562 cleared lysate.
For “TNRC6C (peptide sequence: TITNLQQQIQQHQR, peptide start residue: 1191) (UniProt Q9HCJ0)”, the log2 fold change turned out to be 0.407.
With “MOV10 (peptide sequence: SVGVISPYRK, peptide start residue: 826) (UniProt Q9HCE1)”, the log2 fold change was -0.342.
The same measure for “GNB4 (peptide sequence: TFVSGACDASSK, peptide start residue: 198) (UniProt Q9HAV0)”: 0.247; for “DEF6 (peptide sequence: QRQEWTAAIQMAIR, peptide start residue: 299) (UniProt Q9H4E7)”: -0.201; for “GRPEL1 (peptide sequence: FDPYEHEALFHTPVEGK, peptide start residue: 170) (UniProt Q9HAV7)”: 0.258.
Consider “RANBP3 (peptide sequence: VLSPPKLNEVSSDANR, peptide start residue: 331) (UniProt Q9H6Z4)”, for which the log2 fold change was -0.295.
The same measure for “FAM83D (peptide sequence: VETHFQPR, peptide start residue: 131) (UniProt Q9H4H8)”: 0.78; for “UniProt Q9H993 (peptide sequence: LRNELQTDKPFIPLVEK, peptide start residue: 65)”: -0.0644; for “RSAD1 (peptide sequence: THSACDALR, peptide start residue: 171) (UniProt Q9HA92)”: -0.415.
To “SH3BGRL3 (peptide sequence: SQQSEVTR, peptide start residue: 19) (UniProt Q9H299)” belongs 0.0812; to “GBA2 (peptide sequence: YYNYDSSSRPQSR, peptide start residue: 735) (UniProt Q9HCG7)”, -0.00762.
To “GPN2 (peptide sequence: LTAVHLVDSHYCTDPAK, peptide start residue: 138) (UniProt Q9H9Y4)” belongs 0.348; to “UniProt Q9H1J7 (peptide sequence: VLMNLQNNEAGRR, peptide start residue: 195)”, 0.162; to “CCDC86 (peptide sequence: GQHEPSKPPPAGETVTGGFGAKK, peptide start residue: 191) (UniProt Q9H6F5)”, -0.557.
On to “UniProt Q9H6D7 (peptide sequence: LKTQSELDR, peptide start residue: 254)”, for which the log2 fold change amounted to 0.552.
For the target “AKTIP (peptide sequence: SVHVAGLSWVKPGSVQPFSKEEK, peptide start residue: 266) (UniProt Q9H8T0)”, the log2 fold change was 0.171.
The same measure for “UNC45A (peptide sequence: LDQAVLDLQR, peptide start residue: 108) (UniProt Q9H3U1)”: 0.0744; for “EHD1 (peptide sequence: EMPNVFGKESK, peptide start residue: 317) (UniProt Q9H4M9)”: 0.298.
The same measure for “POFUT1 (peptide sequence: VAYCFEVAAQR, peptide start residue: 123) (UniProt Q9H488)”: -0.32; for “UniProt Q9H6R7 (peptide sequence: HSSTPDHTSTLEPPR, peptide start residue: 527)”: -0.524; for “UniProt Q9HCE5 (peptide sequence: ETCRASYDTSAPNAKR, peptide start residue: 49)”: 0.345.
To “PPCS (peptide sequence: WAEVMAR, peptide start residue: 19) (UniProt Q9HAB8)” belongs -0.244; to “OSBPL2 (peptide sequence: TGERPSQENGIQK, peptide start residue: 47) (UniProt Q9H1P3)”, 0.247.
As for “HIPK2 (peptide sequence: TIIVPPLK, peptide start residue: 984) (UniProt Q9H2X6)”, the log2 fold change worked out at 0.109.
As to “BOLA2 (peptide sequence: TLTPDQWARER, peptide start residue: 74) (UniProt Q9H3K6)”, the log2 fold change is -0.239.
The same measure for “UniProt Q9H9D4 (peptide sequence: LHTGEKPFLCPHCGR, peptide start residue: 489)”: 0.17; for “GAN (peptide sequence: NILAAASPYIR, peptide start residue: 46) (UniProt Q9H2C0)”: -0.146; for “UniProt Q9H1K0 (peptide sequence: TPSLSSTQPTR, peptide start residue: 588)”: -0.119.
